Laboratory results reported in US20110082203A1, “PROCESS TO DIAGNOSE OR TREAT BRAIN INJURY” (priority 2008, published 2011).

Test system: α-II spectrin breakdown products (SBDP)
Conditions: CSF, 24 hours post-TBI; 5 mg/kg i.p.; p=0.028

Question: For `CCN(CC)CCOC(=O)C1(C2CCCCC2)CCCCC1` [Dicyclomine, dicyclomine], which “145 kDa SBDP levels compared to the vehicle treatment group” value is on record?
Answer: significantly (p=0.028) reduced
